Reference: patent US5410052A, “Symmetrical and unsymmetrical polyalkylamine metal complexes for ligand extraction and generation” (The Regents of the University of California, priority 1990, dated 1995)

Experiment: Electrochemical oxygen cell (EOC) results for cobalt carrier compounds
Details: cobalt complex
From the text: One apparatus for bench-scale or laboratory-scale evaluation of particular carrier compounds for use in practicing the methods according to the invention is illustrated schematically in FIG. 8. The electrochemical oxygen cell (EOC), designated 20, includes generally an oxygen loader 22, an electrochemical cell 24 having an anode compartment 26 and a cathode compartment 28 separated by an ion-permeable membrane 30, and an unloader 32. Carrier fluid is circulated through loader 22, anode compartment 26, unloader 32, cathode compartment 28 and back to loader 22 using the pump 34 with appropriate plastic or glass conduit.
The carrier fluids suitable for use in, for example, electrochemical oxygen cell 20 comprise a carrier compound in a concentration between about 1 mM and 500 mM, usually between about 10 mM and 300 mM, usually between about 50 mM and about 200 mM. Carrier fluids comprising carrier compounds according to the present invention are preferably aqueous and include additional an electrolyte, e.g., sodium chloride, potassium chloride, sodium nitrate, potassium sulfate, at a concentration of between about 0.1M (moles/liter) and about 1.0M usually about 0.5M. The carrier fluids may be titrated or buffered to the desired pH. Buffer salts such as sodium borate, potassium phosphate, sodium phosphate, etc., may be used depending upon the pH desired, the availability of particular salts, and compatibility of particular buffer salts with particular carrier compounds. The buffer salts(s) are generally present in concentrations of between 10 mM and about 0.5M, usually between 50 mM and 100 mM.
Loader 22 is, for example a microporous hydrophobic hollow fiber membrane array such as that which will be described more fully below in connection with FIG. 9. Suitable membrane arrays are manufactured by Bard Cardiosurgery. Inc. of Concord, Calif. These membrane arrays are typically modified to allow fluid flow both inside and outside the hollow fibers in a manner that will be apparent to those skilled in the art.
Cell 24 includes a pair of titanium current collector plates 36, 38, which press against two electrodes 40, 42. Typically, electrodes 40, 42 are carbon felt electrodes, in one example of the cell 24 having dimensions of about 25 cm×10 cm.×0.5 cm. Electrodes 40, 42, and thus anode compartment 26 is cathode compartment 28, are separated by membrane 30 which is an ion-permeable membrane made, for example, of Nafion (sold by DuPont). Cell 24 is assembled in a plexiglass housing (not separately shown) having two halves which are bolted together and sealed with an O-ring or gasket seal (not shown). Cell 24 includes the necessary ports for introducing and removing carrier fluids from anode compartment 26 cathode compartment 28. Cell 24 further includes ports for insertion of reference electrodes 44, 46 which are conveniently, but not necessarily silver-silver chloride reference electrodes. Current collector plates 36, 38 are connected via titanium posts 48, 50 to a potentiostat (not shown) capable of supplying either a constant or a variable current or voltable to cell 24. Suitable potentiostats are available for example, from Princeton Applied Research, Princeton, N.J. Unloader 32, in the embodiment shown in FIG. 8 includes a cylindrical fluid gas separation chamber 52, equipped with a nitrogen sweep gas bubbler 54 near the bottom thereof and an exit port at the top thereof. Alternatively, unloader 32 may be a hollow fiber device such as that described above in connection with loader 22.
In operation, carrier fluid is circulated through loader 22 where it is exposed, through the ligand-permeable membrane, to the fluid from which oxygen is to be extracted. In the typical laboratory-scale electrochemical oxygen cell 20, carrier fluid of oxygenated using air as the external fluid. […]

[1] = 10 mM PAA, 30 mL/min, pH 3, 0.9 V
[2] = 10 mM PAA, 30 mL/min, pH 3, 1.6 V
[3] = 75 mM PAA, 95 mL/min, pH 5, 0.5 V
[4] = 100 mM PAA, 30 mL/min, pH 4, 0.9 V
[5] = 100 mM PAA, 30 mL/min, pH 4, 1.6 V
[6] = 100 mM PAA, 100 mL/min, pH 4, 0.5 V
[7] = 100 mM PAA, 120 mL/min, pH 4, 1.6 V
[8] = 162 mM PAA, 68 mL/min, pH 3, 0.5 V
[9] = 10 mM PAA, 30 mL/min, pH 7, 0.9 V
[10] = 10 mM PAA, 30 mL/min, pH 7, 1.6 V
[11] = 150 mM PAA, 58 mL/min, pH 9.18, 0.5 V
[12] = 150 mM PAA, 146 mL/min, pH 9.18, 0.5 V
[13] = 167 mM PAA, 138 mL/min, pH 10.12, 0.5 V

## c1ccc(CNCCNCCNCc2ccccn2)nc1 [compound 62]
[1]
  EC O2 (electrochemical oxygen production rate): 0.143 mL/min
  Power consumed: 178 W/L/min.
  e-/O2 (electrons passed per molecule of O2 produced): 2.5
[2]
  EC O2 (electrochemical oxygen production rate): 0.5 mL/min
  Power consumed: 580 W/L/min.
  e-/O2 (electrons passed per molecule of O2 produced): 4.9
[3]
  EC O2 (electrochemical oxygen production rate): 0.081 mL/min
  Power consumed: 86.2 W/L/min.
  e-/O2 (electrons passed per molecule of O2 produced): 2.4
[4]
  EC O2 (electrochemical oxygen production rate): 1.15 mL/min
  Power consumed: 158 W/L/min.
  e-/O2 (electrons passed per molecule of O2 produced): 2.3
[5]
  EC O2 (electrochemical oxygen production rate): 1.7 mL/min
  Power consumed: 550 W/L/min.
  e-/O2 (electrons passed per molecule of O2 produced): 4.8
[6]
  EC O2 (electrochemical oxygen production rate): 0.082 mL/min
  Power consumed: 99.2 W/L/min.
  e-/O2 (electrons passed per molecule of O2 produced): 2.5
[7]
  EC O2 (electrochemical oxygen production rate): 3.76 mL/min
  Power consumed: 260 W/L/min.
  e-/O2 (electrons passed per molecule of O2 produced): 2.3
[8]
  EC O2 (electrochemical oxygen production rate): 0.133 mL/min
  Power consumed: 99.5 W/L/min.
  e-/O2 (electrons passed per molecule of O2 produced): 2.7

## c1ccc(CNCCCNCCCNCc2ccccn2)nc1 [compound 64]
[9]
  EC O2 (electrochemical oxygen production rate): 0.104 mL/min
  Power consumed: 854 W/L/min.
  e-/O2 (electrons passed per molecule of O2 produced): 13
[10]
  EC O2 (electrochemical oxygen production rate): 0.279 mL/min
  Power consumed: 570 W/L/min.
  e-/O2 (electrons passed per molecule of O2 produced): 5.15
[11]
  EC O2 (electrochemical oxygen production rate): 0.194 mL/min
  Power consumed: 108 W/L/min.
  e-/O2 (electrons passed per molecule of O2 produced): 2.9
[12]
  EC O2 (electrochemical oxygen production rate): 0.259 mL/min
  Power consumed: 100 W/L/min.
  e-/O2 (electrons passed per molecule of O2 produced): 2.85
[13]
  EC O2 (electrochemical oxygen production rate): 0.341 mL/min
  Power consumed: 99.5 W/L/min.
  e-/O2 (electrons passed per molecule of O2 produced): 2.75
